Nine molecules from the supplement of paper PMC12889115 can be followed below.

The subject of this test is Salmonella enterica serovar Typhimurium SL1344. Put plainly: bacterial growth OD600 after 18 h with compound and polymyxin B; higher = more bacterial growth (less inhibition). Conditions: 50 µM, Mueller-Hinton broth.

Some of the results follow. These are raw signals, not scaled to a control.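 Primary screen: polymyxin B was added at a level permeabilizing Salmonella outer membranes while sparing inner membranes. DMSO wells, both with and without polymyxin B, established maximum growth. Plate-to-plate variation meant each plate was ranked on its own, and the lowest-OD600 compounds were selected as hits.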

For the molecule `COc1cccc(CN2CC(C(=O)N(C)Cc3ccc(C)cc3)CCC2=O)c1` (centres undefined), the “bacterial growth OD600” value (polymyxin B 1 µg/mL) turned out to be 0.919. `COC(=O)C1CCCCN1Cc1ccc2c(c1)CN(C(=O)CN1CCOC1=O)CCO2` (centres undefined): the “bacterial growth OD600” value (polymyxin B 0.75 µg/mL) is 0.85. As for `CC(C)(C)NC(=O)NC1CCCc2nc(-c3cccnc3)ncc21` (centres undefined), the “bacterial growth OD600” value (polymyxin B 0.75 µg/mL) is 0.812. Turning to `COc1cc(CNC(=O)CCC2(Cc3ccc(F)c(OC)c3)CCC(=O)N2)cc(OC)c1` (centres undefined), the “bacterial growth OD600” value (polymyxin B 0.75 µg/mL) was found to be 0.915. Consider `O[C@@H]1CN(Cc2cccs2)CC[C@H]1N1CCCCCC1`, for which the “bacterial growth OD600” value (polymyxin B 0.75 µg/mL) is 0.864. On to `COc1cc(CN2CCC(c3nc(-c4ccncc4)ncc3-c3cccc(C)c3)CC2)cc(OC)c1`, for which, where the note is “polymyxin B 0.75 µg/mL”, the “bacterial growth OD600” value amounted to 0.8.

In the case of `COc1ccc(CC2(CCC(=O)NCC3COc4ccccc4O3)CCC(=O)N2)c(F)c1` (centres undefined), for the setting “polymyxin B 0.75 µg/mL”, the “bacterial growth OD600” value was 0.798. With `C=CCCC(=O)N1CCC(n2nccc2NC(=O)c2ccc(OC)cc2)CC1`, the “bacterial growth OD600” value (polymyxin B 1 µg/mL) stood at 0.903. `CCOC(=O)CN(C)C(=O)CC1(c2ccccc2)CC(=O)N(Cc2ccc3c(c2)OCO3)C1=O` (centres undefined): under “polymyxin B 0.75 µg/mL”, the “bacterial growth OD600” value came to 0.95.
